No constants are given. Whether binding was seen depends on the method and setting. Binding seen in cells or lysates may run through a third protein. Some results given as binding are weak or reduced against the parent protein; the word gives no strength.

Consider one substance from PMC4729931.

Experiment [1] addresses T1, VANGL2 (human (endogenous in SUM149, SKBR7, PDX)) (UniProt Q9ULK5).
T1 sequence: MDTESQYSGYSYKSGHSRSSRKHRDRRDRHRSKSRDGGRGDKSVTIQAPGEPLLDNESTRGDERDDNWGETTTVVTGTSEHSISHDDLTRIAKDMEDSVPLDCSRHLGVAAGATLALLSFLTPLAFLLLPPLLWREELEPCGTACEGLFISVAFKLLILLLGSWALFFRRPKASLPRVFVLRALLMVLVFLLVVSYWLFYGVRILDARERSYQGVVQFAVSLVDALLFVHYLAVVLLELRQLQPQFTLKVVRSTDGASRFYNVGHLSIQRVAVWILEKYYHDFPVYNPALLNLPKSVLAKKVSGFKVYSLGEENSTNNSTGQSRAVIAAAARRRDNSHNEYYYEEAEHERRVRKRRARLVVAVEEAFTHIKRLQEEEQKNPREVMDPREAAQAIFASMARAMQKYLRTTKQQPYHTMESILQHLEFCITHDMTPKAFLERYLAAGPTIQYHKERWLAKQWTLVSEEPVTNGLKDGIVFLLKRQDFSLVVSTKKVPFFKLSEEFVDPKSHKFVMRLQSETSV
In words: co-IP; co-immunoprecipitation from SUM149 cells expressing GFP-p62^DN (Supplementary Fig. 5).

For experiment [2], the target named is T1, VANGL2 (human (endogenous in SUM149, SKBR7, PDX)). Briefly: co-IP; immunoprecipitation of endogenous VANGL2 (2G4 mAb, protein G-agarose) and western blot; SUM149, SKBR7, IMCD3 cells and PDX extracts; cells also treated with serum, Wnt5a, PBS or EGTA.

Regarding “p62/sequestosome-1 (from UniProt Q13501 1-440)”, the binding entry in experiment [1] and in experiment [2] was “binds” in each case.
